MtTrpRS: 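Tryptophan-tRNA ligase, Mycobacterium tuberculosis (UniProt P9WFT3). Enzyme assay of tryptophanyl-tRNA synthetase; the read-out is not stated. Concentration: 10 µM. Direction is not recorded; retested compounds ran higher, which suggests that high means inhibition. Size under these conditions: about 65,000 compounds, about 64 of them at 50% or above in at least one test.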
TcHisRS: 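Enzyme assay of histidyl-tRNA synthetase; the read-out is not stated. Target: Histidine-tRNA ligase, Trypanosoma cruzi CL Brener (UniProt Q4DA54). Compounds at 30 µM. The record gives no direction; compounds that gave an IC50 in retests scored well above the rest, so higher reads as stronger inhibition. About 69,000 compounds were tested under these conditions; 0.045% (about 31) showed 50% or more at least once.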
PfKRS1: 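Lysine-tRNA ligase, Plasmodium falciparum 3D7 (UniProt Q8IDJ8). Enzyme assay of the cytosolic lysyl-tRNA synthetase in 384-well plates, read by luminescence. Tested at 30 µM. Direction is inferred from only a few compounds that gave an IC50; most scored high, so higher reads as stronger inhibition. Of about 69,000 compounds tested this way, about 49 (0.071%) reached 50% or more in at least one test.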
CoaBC: 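Enzyme assay of CoaBC with a phosphate dye (Biomol Green) read at 650 nm. Target: Coenzyme A biosynthesis protein CoaBC, Mycobacterium tuberculosis (UniProt P9WNZ1). Concentration: 30 µM. Higher reads as stronger inhibition, judged from the few compounds that gave an IC50. Most strong results did not repeat in a second test. About 67,000 compounds were tested under these conditions; 0.06% (about 40) showed 50% or more at least once.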
Pks13 thioesterase: 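Enzyme assay of the thioesterase domain of polyketide synthase 13; the read-out is not stated. Target: Polyketide synthase Pks13, Mycobacterium tuberculosis (UniProt I6X8D2). Concentration: 30 µM. The record gives no direction; the compounds picked for IC50 retests had high values, so higher reads as stronger inhibition. Of about 67,000 compounds tested this way, about 300 (0.46%) reached 50% or more in at least one test.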
Leishmania in macrophages: 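Cell assay of Leishmania donovani living inside macrophages; the read-out is not stated. Tested at 30 µM. Direction is inferred from retests: higher values go with stronger inhibition. About 69,000 compounds were tested under these conditions; 1.5% (about 1,000) showed 50% or more at least once.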

By UniProt entry, the sequences of proteins in these tests, tags left out. Residues count along the entry.
UniProt P9WFT3, whole entry: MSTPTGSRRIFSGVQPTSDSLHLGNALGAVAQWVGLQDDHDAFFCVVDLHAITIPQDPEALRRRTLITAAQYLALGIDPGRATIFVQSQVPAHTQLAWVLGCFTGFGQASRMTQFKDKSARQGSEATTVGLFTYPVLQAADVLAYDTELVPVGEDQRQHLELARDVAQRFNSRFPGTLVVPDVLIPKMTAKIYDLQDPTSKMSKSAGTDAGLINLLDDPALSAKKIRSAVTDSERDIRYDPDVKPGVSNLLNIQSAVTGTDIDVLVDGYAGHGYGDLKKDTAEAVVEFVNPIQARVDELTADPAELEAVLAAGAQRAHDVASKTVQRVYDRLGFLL
UniProt Q4DA54, 1-478: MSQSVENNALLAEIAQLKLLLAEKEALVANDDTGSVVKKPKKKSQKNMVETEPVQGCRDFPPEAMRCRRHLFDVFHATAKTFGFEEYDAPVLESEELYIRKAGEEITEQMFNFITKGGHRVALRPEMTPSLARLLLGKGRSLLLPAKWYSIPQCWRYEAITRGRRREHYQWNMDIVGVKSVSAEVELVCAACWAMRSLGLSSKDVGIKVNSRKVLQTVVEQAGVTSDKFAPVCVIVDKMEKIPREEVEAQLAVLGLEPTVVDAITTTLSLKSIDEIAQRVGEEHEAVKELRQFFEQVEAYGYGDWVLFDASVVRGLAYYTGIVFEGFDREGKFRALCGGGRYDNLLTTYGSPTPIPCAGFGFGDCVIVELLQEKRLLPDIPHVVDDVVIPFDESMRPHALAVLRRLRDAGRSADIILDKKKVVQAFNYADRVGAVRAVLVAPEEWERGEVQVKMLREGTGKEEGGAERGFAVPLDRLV
UniProt Q8IDJ8, 1-583: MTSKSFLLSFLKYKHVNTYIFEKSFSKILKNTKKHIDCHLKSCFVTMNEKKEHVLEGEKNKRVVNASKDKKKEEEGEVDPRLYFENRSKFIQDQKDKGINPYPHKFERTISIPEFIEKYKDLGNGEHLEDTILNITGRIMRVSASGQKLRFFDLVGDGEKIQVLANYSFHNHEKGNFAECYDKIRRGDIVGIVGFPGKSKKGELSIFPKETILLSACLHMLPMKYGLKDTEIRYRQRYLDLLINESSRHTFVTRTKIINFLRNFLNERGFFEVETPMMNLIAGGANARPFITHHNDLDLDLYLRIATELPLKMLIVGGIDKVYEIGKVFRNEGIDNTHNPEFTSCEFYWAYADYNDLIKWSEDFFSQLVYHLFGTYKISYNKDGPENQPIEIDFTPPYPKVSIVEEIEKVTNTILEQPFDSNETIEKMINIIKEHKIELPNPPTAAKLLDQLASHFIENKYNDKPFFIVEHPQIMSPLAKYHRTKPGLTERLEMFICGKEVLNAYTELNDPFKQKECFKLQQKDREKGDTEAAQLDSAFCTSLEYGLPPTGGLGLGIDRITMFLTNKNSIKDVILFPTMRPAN
UniProt P9WNZ1, whole entry: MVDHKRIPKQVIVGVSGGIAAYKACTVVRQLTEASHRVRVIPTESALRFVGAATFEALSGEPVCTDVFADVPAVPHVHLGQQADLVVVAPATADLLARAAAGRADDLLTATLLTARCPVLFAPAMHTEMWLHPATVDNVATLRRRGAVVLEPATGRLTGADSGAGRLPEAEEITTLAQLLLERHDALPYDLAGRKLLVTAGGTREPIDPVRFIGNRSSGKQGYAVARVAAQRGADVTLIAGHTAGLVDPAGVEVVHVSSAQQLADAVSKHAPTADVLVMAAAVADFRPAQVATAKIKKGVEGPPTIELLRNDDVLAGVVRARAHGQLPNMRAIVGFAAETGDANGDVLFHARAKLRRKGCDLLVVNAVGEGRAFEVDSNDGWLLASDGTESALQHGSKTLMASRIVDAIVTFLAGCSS
UniProt I6X8D2, whole entry: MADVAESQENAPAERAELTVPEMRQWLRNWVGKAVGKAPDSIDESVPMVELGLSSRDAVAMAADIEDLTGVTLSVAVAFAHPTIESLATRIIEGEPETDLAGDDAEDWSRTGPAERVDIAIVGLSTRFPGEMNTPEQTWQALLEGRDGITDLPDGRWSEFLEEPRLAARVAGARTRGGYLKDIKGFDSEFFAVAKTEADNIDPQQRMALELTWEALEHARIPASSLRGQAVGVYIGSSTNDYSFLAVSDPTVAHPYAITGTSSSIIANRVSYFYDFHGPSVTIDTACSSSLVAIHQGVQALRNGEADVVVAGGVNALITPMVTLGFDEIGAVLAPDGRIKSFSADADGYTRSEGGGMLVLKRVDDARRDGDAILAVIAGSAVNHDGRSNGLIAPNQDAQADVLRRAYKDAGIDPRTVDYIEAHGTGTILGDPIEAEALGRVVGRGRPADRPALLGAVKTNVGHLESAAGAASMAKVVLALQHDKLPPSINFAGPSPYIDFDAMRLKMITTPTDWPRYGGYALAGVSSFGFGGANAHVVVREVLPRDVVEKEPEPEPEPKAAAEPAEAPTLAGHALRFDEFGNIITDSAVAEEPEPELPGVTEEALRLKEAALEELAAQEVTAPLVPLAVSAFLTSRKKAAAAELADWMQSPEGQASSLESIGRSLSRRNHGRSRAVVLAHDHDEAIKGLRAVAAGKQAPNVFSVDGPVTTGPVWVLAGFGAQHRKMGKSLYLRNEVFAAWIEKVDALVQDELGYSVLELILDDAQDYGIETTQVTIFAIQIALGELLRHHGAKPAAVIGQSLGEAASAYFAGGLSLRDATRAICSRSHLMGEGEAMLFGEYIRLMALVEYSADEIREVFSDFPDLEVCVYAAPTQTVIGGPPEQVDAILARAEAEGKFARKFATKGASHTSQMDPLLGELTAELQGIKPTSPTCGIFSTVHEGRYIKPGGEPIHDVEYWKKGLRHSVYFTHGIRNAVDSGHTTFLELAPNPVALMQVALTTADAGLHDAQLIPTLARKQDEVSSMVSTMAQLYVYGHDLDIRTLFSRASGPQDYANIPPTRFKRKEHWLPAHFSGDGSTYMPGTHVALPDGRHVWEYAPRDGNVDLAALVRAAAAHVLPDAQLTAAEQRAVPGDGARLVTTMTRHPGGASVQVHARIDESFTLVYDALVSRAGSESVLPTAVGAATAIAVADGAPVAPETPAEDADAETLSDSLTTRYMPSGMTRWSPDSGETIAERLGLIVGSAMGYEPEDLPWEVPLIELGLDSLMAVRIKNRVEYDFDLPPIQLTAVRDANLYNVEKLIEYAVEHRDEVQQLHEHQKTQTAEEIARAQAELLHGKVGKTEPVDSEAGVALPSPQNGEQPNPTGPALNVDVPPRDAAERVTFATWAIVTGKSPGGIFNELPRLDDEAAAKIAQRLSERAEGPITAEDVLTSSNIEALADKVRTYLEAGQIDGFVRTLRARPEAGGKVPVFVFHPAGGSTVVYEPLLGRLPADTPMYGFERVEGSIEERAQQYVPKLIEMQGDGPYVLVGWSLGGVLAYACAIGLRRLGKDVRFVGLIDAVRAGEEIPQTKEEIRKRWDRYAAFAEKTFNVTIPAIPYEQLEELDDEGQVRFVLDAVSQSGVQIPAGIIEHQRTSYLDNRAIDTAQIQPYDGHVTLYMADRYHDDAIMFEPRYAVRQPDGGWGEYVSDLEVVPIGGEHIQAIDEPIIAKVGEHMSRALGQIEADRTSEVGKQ

The filed quantity is “Percent Effect” (%).
How 0% and 100% were set is not recorded. Most values in the screen are low, and negative values occur.
This is an unselected part of the compounds tested.
Two or more numbers in one place are separate tests of the same structure; such repeats can differ widely.
A dash means the value is not listed here; it may have been measured.

compound | MtTrpRS | TcHisRS | PfKRS1 | CoaBC | Pks13 thioesterase | Leishmania in macrophages
CC(NC(=O)c1sccc1C1CC1)c1ccc2c(c1)CC(=O)N2 (stereo not shown) | -1.548 | 6.494 | 2.085 | - | -17.25 | -6.803
COCCOCC(=O)Nc1ccc(F)cc1C | -0.4402 | 2.513 | -1.616 | -1.805 | 0.9686 | -5.887
Cc1c(NC(=O)N(C)CCCc2cnn(C)c2)cnn1C | -4.721 | 4.813 | -0.0113 | -0.4348 | -17.05 | 34.44
O=C(Nc1cccn(Cc2ccc(F)cc2)c1=O)c1csnn1 | -3.219 | 1.327 | 5.717 | -6.308 | -2.679 | -8.066
COCCn1ccc2c(NC(=O)C(C)C)cccc21 | 3.932 | 2.484 | 6.751 | -2.152 | -18.69 | -26.47
CCc1cccc(NC(=O)CCN2CC=C(c3cnn(C)c3)CC2)c1 | 4.218 | 0.8929 | 9.048 | 1.635 | -24.98 | 16.66
COCCc1noc(CN2CCCCC2Cn2cc(C)cn2)n1 (stereo not shown) | 0.8166 | -1.527 | -0.7502 | -1.036 | -2.768 | 12.29
C=Cn1ncc(CN2CCc3nc(-c4ccncc4)nc(O)c3C2)c1C | - | 13.83 | 2.947 | 8.578 | 20.98 | 12.47
COc1cc(Cl)c(C)cc1-n1nnc(C(=O)O)c1-c1ccncc1 | -1.814 | 5.366 | 0.127 | -8.908 | -23.84 | 8.457
Cc1occc1C(=O)N1CCC2(CCCN(c3ncc(F)cn3)C2)C1.O=C(O)C(F)(F)F (stereo not shown) | - | - | - | - | - | 45.2
CS(=O)(=O)NCCCNCc1cc(F)ccc1Br | -3.964 | 1.571 | -2.084 | 5.353 | -39.87 | 31.07
O=C(CCn1ccc2ccccc21)Nc1ccnn1CC1CCOC1 (stereo not shown) | -1.188 | 7.212 | -0.9912 | 0.1272 | -1.612 | 3.783
CN(Cc1csc(-c2cccs2)n1)Cc1cccnc1N | 0.5084 | 3.03 | -1.825 | 2.676 | -20.61 | 54.27
COc1ccccc1CC(=O)N1CCCC(CNS(C)(=O)=O)C1 (stereo not shown) | -0.104 | 3.529 | 2.188 | 2.302 | -11.46 | 15.14
Cc1nc(C2CCCN2C(=O)c2cc3c(s2)CCC3)no1 (stereo not shown) | -6.198 | 1.754 | 0.4086 | 0.7653 | -6.493 | 11.58
Cc1ccc2c(n1)N(CCn1cccn1)CCN(S(C)(=O)=O)C2 | 7.169 | 1.869 | -3.172 | -4.691 | -44.45 | -
COc1cccc(CN2CCCC(c3cc(C(N)=O)[nH]n3)C2)c1 (stereo not shown) | -9.237 | 0 | 0.3957 | 2.611 | -15.45 | 9.353
COc1coc(C(=O)Nc2nc(C)cs2)cc1=O | -0.3236 | 9.901 | 0.4576 | -0.4819 | 11.16 | 32.66
CN(c1ccc(C(=O)NCCCN2CCCC2)c(Cl)c1)S(C)(=O)=O | -0.3228 | 0.4484 | -2.011 | 1.777 | -10.05 | 4.084
CC(C)COC(=O)N1[C@@H](c2ccco2)[C@@H](CO)C[C@]12CCCCNC2=O | - | 13.48 | 6.848 | 2.906 | 8.57 | 0
CCOc1ncccc1Cn1cc(-c2nccn2C)nn1 | -1.651 | 11.84 | -0.5218 | - | -12.12 | 4.105
CCn1cnnc1C1CCN(C(=O)c2ccc3c(c2)nnn3C)CC1 | 1.614 | 3.518 | -0.5001 | -4.693 | -14.84 | 4.02
O=C(CCCOc1cccc(F)c1)N1CCCC(n2cccn2)C1 (stereo not shown) | -3.237 | 4.274 | -0.3216 | -5.362 | -17.24 | 14.22
Cc1ccc(CN2CCC3(CC2)CCN(Cc2ccco2)CC3)cc1 | 1.262 | 0 | 4.791 | -12.83 | -29.42 | -
Cc1ccc(-c2cc(C3CCNCC3)nc(C)n2)cc1.Cl | - | - | - | - | - | 14.23
Cc1ccccc1CCCN(Cc1ccccn1)S(C)(=O)=O | -0.09671 | 0.5435 | -0.5995 | -1.653 | -25.94 | -5.167
CCc1ccccc1CN1CC[C@@]2(O)CCN(S(=O)(=O)N(C)C)C[C@H]2C1 | -1.725 | 6.077 | 1.982 | 1.942 | -17.74 | -
Cc1[nH]ccc1C(=O)N1CCCN1C(=O)OC(C)(C)C | -1.025 | 2.439 | 4.12 | 1.129 | -7.132 | -11.3
O=C(Nc1ccc2c(c1)C(=O)NC2=O)c1cccs1 | -0.9266 | -1.739 | 4.358 | -4.551 | -9.691 | -3.255
Cc1nc(NCC(O)CN2CCCCCC2)c2c(C)noc2n1 (stereo not shown) | -0.7766 | 18.53 | 2.729 | 5.703 | -38.89 | 26.92
CC(C)c1cc(NC(=O)CN2CCCC2Cn2cncn2)on1 (stereo not shown) | 1.709 | -0.578 | 2.924 | 2.477 | -12.02 | -2.988
O=C(Nc1cc(Cl)ccc1N1CCCCC1)c1ccccn1 | 12.08 | -4.598 | -0.4964 | 9.6 | - | -23.34
COCCN(C)C[C@@H]1CN(C(=O)c2cccc(C#N)c2)C[C@@H]1CO | -1.174 | -3.518 | -0.1279 | -3.73 | -9.23 | -5.773
N#Cc1ccccc1CN1CCC(c2nccn2CC2CCC2)CC1 | 3.809 | 15.29 | 1.45 | 5.405 | -11.3 | -7.568
Cc1nc(C2CCCN(C(=O)c3ccc(S(C)(=O)=O)cc3)C2)no1 (stereo not shown) | -2.101 | 4.274 | -0.1608 | -20.38 | -7.445 | -3.089
Cc1nn(CCNC(C)Cn2ccnc2)c(C)c1Cl (stereo not shown) | -1.972 | 10.24 | 5.852 | 0.3764 | -16.43 | -6.116
CN(C)CCN1CCOCC2(CCCN(C(=O)c3ccccn3)C2)C1.O=C(O)C(F)(F)F.O=C(O)C(F)(F)F (stereo not shown) | - | - | - | - | - | -0.7709
Cc1ccc(C(=O)N2CCN(c3ncnc4nc(N)ccc34)CC2)cc1 | -3.981 | 13.73 | -1.554 | -0.319 | -11.66 | -12.47
O=C(CN1CCC(c2ccnn2CCO)CC1)NCC1CCCCC1 | -5.387 | 5.143 | 1.618 | -0.7874 | -4.414 | 15.55
O=C(Nc1cccc(C(F)F)c1)N[C@@H]1C=C[C@H](CO)C1 | -0.7498 | 5.051 | -0.7468 | 5.835 | -8.06 | -3.451
Cc1cc(C)c(CNC(=O)NCC(O)c2ccc(Cl)cc2)c(=O)[nH]1 (stereo not shown) | -3.83 | 4.624 | 0.4366 | -5.606 | 2.412 | -4.493
CC(Oc1ccc2c(c1)OCO2)C(=O)N1CCC(N2CCOCC2)CC1 (stereo not shown) | 1.069 | 1.739 | 0.1414 | -0.1167 | -7.705 | 18.9
O=C(Nc1cccnc1)NC(CCCO)c1ccccc1 (stereo not shown) | -0.7424 | 10.1 | 2.952 | 4.707 | -1.797 | -15.76
Cc1nnc(CN(Cc2ccccc2Cl)C2CCCC2)o1 | -2.249 | 1.01 | -0.7468 | -0.9724 | 4.235 | -2.512
CC(C(=O)N1CCN(C(=O)c2ccc(F)cc2F)CC1)n1ccnc1 (stereo not shown) | -1.469 | 5.844 | 1.249 | 1.814 | -37.95 | 7.718
c1coc(-c2nnc([C@H]3CCN(Cc4ccc5c(c4)OCO5)C3)o2)c1 | -1.29 | 2.174 | 6.204 | 1.545 | -24.15 | 29.2
[H][C@@]12CC[C@H](Oc3ccccc3Cl)[C@]1([H])CN(C(=O)CN(C)C)C2 | - | - | - | - | - | 15.5
O=C(c1ccncc1)N1CCCC1c1nc(O)cc(-c2ccccn2)n1 (stereo not shown) | - | 11.11 | 4.876 | 1.453 | -2.97 | 0.7629 and -2.601

Repeated from the top, 5 entries:

| compound | MtTrpRS | TcHisRS | PfKRS1 | CoaBC | Pks13 thioesterase | Leishmania in macrophages |
|---|---|---|---|---|---|---|
| `CC(NC(=O)c1sccc1C1CC1)c1ccc2c(c1)CC(=O)N2` (stereo not shown) | -1.548 | 6.494 | 2.085 | - | -17.25 | -6.803 |
| `COCCOCC(=O)Nc1ccc(F)cc1C` | -0.4402 | 2.513 | -1.616 | -1.805 | 0.9686 | -5.887 |
| `Cc1c(NC(=O)N(C)CCCc2cnn(C)c2)cnn1C` | -4.721 | 4.813 | -0.0113 | -0.4348 | -17.05 | 34.44 |
| `O=C(Nc1cccn(Cc2ccc(F)cc2)c1=O)c1csnn1` | -3.219 | 1.327 | 5.717 | -6.308 | -2.679 | -8.066 |
| `COCCn1ccc2c(NC(=O)C(C)C)cccc21` | 3.932 | 2.484 | 6.751 | -2.152 | -18.69 | -26.47 |

The values are deposited in ChEMBL (CHEMBL3988442, “University of Dundee, Small-Polar-MMV Screening Library” (2021)).